Measurements taken from the supplement of paper PMC10849652.
Some of the results follow. Residues, ends and D or L forms follow the SMILES beside them. *: point of attachment. Cbz = O=C(OCc1ccccc1)*

Chains of the proteins cited; added tags and fusions are not shown. Lines headed by an entry give the natural chain unless they say otherwise; changes in a name come on top.
UniProt P55822: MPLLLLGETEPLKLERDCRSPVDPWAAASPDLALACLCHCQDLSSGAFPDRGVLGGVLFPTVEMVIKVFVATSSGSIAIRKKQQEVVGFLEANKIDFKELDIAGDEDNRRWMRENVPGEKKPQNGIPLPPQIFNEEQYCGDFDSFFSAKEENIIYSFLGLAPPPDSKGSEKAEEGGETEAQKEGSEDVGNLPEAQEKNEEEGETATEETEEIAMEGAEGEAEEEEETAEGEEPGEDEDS
UniProt P05546: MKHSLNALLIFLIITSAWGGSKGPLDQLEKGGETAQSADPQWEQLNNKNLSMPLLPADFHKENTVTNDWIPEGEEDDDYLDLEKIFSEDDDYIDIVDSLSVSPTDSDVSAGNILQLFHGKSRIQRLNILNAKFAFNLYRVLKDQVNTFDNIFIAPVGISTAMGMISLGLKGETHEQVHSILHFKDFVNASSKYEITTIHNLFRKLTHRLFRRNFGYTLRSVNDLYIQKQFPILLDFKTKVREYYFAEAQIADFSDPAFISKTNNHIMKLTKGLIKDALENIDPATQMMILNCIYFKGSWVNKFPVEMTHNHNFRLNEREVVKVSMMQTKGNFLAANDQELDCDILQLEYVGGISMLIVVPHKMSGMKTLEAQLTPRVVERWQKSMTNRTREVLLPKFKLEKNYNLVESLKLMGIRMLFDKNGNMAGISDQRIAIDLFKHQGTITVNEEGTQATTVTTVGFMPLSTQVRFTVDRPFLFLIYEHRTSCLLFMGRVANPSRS
UniProt P84101: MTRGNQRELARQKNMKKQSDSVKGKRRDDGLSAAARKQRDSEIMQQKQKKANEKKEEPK
UniProt Q8WVK7: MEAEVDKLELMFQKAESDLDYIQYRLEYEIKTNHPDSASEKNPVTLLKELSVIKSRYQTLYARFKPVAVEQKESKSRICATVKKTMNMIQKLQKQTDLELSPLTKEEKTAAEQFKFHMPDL
UniProt Q8WV19: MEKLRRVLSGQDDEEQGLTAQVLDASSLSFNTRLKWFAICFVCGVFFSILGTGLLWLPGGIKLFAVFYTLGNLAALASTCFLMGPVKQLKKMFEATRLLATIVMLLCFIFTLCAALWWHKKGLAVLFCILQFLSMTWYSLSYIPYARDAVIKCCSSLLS
UniProt Q9BYW2: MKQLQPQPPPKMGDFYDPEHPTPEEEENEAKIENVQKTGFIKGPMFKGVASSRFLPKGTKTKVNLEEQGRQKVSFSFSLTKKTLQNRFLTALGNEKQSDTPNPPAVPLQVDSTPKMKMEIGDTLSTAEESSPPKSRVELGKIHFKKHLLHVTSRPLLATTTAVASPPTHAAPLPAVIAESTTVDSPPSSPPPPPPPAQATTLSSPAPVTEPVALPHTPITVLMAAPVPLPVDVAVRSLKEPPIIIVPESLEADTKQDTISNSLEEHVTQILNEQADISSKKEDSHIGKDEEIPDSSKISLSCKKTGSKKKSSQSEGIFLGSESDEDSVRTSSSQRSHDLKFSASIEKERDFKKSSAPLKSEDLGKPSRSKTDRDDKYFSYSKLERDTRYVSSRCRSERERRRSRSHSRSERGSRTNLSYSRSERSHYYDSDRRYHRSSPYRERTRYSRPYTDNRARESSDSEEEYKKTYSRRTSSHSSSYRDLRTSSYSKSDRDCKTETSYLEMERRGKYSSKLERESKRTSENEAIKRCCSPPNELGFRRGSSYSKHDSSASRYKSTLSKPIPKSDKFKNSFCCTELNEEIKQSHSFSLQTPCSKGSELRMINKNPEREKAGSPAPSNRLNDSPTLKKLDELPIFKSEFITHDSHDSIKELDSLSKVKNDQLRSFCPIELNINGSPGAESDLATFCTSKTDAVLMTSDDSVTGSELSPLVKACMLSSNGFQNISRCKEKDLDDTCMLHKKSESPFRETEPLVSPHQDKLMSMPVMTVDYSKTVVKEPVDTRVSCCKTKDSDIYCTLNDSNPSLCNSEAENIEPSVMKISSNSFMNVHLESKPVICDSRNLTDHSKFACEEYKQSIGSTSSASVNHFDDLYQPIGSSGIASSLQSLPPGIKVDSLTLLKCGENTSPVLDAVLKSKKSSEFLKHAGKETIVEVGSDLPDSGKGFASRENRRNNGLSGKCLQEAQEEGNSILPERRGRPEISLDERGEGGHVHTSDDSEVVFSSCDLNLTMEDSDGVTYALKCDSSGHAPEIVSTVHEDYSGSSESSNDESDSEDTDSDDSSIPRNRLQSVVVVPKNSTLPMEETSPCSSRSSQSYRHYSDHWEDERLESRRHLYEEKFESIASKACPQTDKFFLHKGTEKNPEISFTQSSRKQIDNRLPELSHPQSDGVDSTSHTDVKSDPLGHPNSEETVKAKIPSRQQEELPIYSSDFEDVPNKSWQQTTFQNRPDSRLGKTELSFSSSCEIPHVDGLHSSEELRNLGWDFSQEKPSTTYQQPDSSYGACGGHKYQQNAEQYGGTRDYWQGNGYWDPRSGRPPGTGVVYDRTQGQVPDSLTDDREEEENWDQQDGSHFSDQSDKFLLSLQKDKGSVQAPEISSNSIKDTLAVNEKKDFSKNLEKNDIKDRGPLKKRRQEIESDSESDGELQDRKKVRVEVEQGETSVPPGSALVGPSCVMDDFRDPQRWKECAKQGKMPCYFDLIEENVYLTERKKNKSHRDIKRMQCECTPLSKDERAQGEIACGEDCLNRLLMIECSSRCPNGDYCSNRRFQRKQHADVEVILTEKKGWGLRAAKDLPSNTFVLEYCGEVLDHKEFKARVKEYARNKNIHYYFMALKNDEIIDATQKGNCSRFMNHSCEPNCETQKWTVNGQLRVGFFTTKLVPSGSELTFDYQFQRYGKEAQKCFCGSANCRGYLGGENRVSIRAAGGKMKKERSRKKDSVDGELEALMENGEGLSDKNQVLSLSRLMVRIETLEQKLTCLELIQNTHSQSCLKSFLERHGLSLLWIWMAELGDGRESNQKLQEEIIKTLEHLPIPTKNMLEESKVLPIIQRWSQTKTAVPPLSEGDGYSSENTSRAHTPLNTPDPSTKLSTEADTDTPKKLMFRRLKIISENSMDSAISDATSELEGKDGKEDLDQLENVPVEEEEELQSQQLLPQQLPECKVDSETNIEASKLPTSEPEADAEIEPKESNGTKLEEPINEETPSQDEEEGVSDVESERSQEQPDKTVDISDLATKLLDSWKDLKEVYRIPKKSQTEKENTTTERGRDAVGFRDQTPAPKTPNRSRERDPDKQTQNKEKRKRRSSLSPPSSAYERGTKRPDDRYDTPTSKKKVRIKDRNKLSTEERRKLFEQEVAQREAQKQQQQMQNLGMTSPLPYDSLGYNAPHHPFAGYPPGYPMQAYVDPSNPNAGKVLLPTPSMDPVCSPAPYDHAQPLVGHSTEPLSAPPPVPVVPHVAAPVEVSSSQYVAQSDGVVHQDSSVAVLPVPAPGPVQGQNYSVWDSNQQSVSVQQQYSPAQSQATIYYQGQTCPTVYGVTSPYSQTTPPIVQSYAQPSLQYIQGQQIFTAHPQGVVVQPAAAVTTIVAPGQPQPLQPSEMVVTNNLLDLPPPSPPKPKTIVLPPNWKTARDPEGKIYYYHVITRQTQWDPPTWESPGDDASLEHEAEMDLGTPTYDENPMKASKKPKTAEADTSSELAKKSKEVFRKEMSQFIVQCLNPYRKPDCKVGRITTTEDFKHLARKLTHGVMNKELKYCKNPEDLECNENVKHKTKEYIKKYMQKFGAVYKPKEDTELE
UniProt P05155: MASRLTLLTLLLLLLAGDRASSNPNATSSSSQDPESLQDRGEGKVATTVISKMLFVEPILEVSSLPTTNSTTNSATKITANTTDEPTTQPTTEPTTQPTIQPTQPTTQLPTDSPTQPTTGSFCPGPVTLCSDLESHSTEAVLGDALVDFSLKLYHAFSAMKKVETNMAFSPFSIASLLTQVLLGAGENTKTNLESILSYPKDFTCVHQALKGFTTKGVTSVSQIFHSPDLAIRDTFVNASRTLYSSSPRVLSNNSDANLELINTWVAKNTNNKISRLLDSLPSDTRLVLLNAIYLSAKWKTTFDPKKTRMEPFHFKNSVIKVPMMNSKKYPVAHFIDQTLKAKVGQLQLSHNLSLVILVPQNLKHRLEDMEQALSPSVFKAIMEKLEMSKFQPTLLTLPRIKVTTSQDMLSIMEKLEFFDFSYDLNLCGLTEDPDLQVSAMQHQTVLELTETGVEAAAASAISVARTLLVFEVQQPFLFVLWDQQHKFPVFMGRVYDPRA
UniProt Q9H0K1: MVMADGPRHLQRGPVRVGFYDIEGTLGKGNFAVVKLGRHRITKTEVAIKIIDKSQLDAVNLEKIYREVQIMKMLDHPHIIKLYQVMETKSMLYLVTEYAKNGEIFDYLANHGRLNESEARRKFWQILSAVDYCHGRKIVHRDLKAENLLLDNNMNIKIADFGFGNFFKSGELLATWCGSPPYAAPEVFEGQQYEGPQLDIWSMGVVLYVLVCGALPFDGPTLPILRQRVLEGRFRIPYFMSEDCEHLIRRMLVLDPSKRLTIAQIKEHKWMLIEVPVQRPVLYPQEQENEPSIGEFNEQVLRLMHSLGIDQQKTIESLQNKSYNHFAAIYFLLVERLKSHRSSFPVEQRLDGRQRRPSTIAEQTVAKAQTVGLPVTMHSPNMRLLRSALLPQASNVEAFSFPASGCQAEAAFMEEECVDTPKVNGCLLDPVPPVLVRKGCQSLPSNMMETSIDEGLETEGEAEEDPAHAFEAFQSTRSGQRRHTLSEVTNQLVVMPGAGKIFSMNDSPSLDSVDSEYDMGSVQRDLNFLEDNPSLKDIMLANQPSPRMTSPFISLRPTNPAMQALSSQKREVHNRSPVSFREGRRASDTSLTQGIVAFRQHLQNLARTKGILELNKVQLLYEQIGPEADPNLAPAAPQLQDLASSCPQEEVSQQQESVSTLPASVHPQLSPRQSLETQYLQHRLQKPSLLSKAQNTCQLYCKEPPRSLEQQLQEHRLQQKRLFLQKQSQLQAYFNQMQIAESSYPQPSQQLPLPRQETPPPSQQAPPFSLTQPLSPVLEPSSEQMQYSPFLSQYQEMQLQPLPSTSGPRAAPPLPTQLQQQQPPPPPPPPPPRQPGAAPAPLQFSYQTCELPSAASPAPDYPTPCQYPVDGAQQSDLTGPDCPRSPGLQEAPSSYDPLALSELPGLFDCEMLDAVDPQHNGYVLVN
UniProt O75635: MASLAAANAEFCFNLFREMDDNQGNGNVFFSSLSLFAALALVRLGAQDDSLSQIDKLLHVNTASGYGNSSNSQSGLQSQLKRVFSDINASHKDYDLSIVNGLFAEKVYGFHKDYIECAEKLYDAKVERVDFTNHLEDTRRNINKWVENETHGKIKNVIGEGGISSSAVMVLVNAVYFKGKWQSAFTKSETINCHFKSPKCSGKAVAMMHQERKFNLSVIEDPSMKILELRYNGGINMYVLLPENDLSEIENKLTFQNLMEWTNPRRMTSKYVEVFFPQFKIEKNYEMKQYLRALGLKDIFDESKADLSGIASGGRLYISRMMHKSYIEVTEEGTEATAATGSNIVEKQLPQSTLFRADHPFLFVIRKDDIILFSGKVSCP
UniProt Q9P0V9: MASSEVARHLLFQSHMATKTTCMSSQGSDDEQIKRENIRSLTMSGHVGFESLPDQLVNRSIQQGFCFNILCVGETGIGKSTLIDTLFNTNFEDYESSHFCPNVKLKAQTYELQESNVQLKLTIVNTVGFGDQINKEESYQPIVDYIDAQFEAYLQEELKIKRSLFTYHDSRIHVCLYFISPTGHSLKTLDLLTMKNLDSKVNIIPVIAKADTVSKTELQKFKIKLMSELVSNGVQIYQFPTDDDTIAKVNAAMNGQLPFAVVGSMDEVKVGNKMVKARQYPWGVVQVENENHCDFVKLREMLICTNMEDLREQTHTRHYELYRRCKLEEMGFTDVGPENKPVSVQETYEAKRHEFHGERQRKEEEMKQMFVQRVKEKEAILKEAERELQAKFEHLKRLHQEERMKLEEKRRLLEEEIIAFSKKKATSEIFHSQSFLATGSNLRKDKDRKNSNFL
UniProt P29353: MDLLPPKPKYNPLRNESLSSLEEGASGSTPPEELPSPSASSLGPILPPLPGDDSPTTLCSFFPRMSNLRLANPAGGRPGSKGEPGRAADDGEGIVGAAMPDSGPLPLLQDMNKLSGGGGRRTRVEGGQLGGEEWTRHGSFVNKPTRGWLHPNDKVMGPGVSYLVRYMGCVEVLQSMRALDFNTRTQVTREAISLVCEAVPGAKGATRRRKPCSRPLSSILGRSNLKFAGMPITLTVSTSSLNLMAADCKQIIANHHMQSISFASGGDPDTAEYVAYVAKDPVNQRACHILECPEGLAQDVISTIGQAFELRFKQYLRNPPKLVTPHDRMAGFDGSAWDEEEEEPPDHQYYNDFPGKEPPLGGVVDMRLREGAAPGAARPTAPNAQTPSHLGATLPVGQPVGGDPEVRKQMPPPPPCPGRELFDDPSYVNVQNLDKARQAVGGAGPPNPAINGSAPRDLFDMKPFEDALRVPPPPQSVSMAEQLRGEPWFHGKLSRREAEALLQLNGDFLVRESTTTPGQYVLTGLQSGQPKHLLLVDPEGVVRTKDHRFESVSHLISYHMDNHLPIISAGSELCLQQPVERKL
UniProt Q9Y6D0, whole entry, looked up: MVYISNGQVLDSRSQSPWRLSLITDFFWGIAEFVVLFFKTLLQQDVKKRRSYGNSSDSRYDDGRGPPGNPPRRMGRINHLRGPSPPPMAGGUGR

Key:
Assay in all cases: log2 fold change, soluble protein after heating vs DMSO (PISA); higher = thermal stabilisation; K562 cells, 10 uM, 30 min; active = over 0.2 and 3.5 SD of the protein, either way, in both replicates (recomputed)
IRAK-1-4 Inhibitor I = compound: C1COCCN1CCN2C3=CC=CC=C3N=C2NC(=O)C4=CC(=CC=C4)[N+](=O)[O-] [IRAK-1-4 Inhibitor I]
Procedure, shortened: (§1)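 K562 cells at 2×10^6 cells/mL were exposed to 10 μM compound for 30 min, then aliquots were heated for 3 min across 48°C-58°C, pooled, and extracted in PBS containing 0.5% NP-40 at 4°C. The supernatant after 21,000xg for 90 min was taken as soluble protein and measured by TMTpro 16plex LC-MS/MS with channel sums equalised. Thermal stability is reported relative to control samples, with values from duplicates. Fold changes are given on a log2 scale.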

ibrutinib = compound: C=CC(=O)N1CCC[C@@H](n2nc(-c3ccc(Oc4ccccc4)cc3)c3c(N)ncnc32)C1 [ibrutinib]
Procedure, shortened: as §1

[1] = compound: CC(C)C1=C2N=C(C=C(N2N=C1)NCC3=CC=CC=C3)NCCCCCCN
Procedure, shortened: as §1

pinometostat = compound: CC(C)N(C[C@H]1O[C@@H](n2cnc3c(N)ncnc32)[C@H](O)[C@@H]1O)[C@H]1C[C@@H](CCc2nc3cc(C(C)(C)C)ccc3[nH]2)C1 [pinometostat]
Procedure, shortened: as §1

ralimetinib = compound: CC(C)(C)Cn1c(N)nc2ccc(-c3[nH]c(C(C)(C)C)nc3-c3ccc(F)cc3)nc21 [ralimetinib]
Procedure, shortened: as §1

[2] = compound: CC(C)(O)CC(=O)NCCn1ccc2ncnc(Nc3ccc(Oc4cccc(C(F)(F)F)c4)c(Cl)c3)c21
Procedure, shortened: as §1

[3] = compound: CC(C)C[C@@H](C=O)NC(=O)[C@H](CC(C)C)NC(=O)[C@H](CC(C)C)NC(=O)OCc1ccccc1
Procedure, shortened: as §1

[4] = compound: CC1=C(C(CC(=O)N1)C2=CC=C(C=C2)C(F)(F)F)C(=O)NC3=C(C=C4C(=C3)C=NN4)F
Procedure, shortened: as §1

[5] = compound: CC1=C(C2=C(C=C1)C(=O)C3=CC=CC=C3N2CCCN)C
Procedure, shortened: as §1

[6] = compound: CC(=O)c1cnc2ccc(-c3cc(Cl)c(O)c(Cl)c3)nc2c1N[C@H]1CC[C@H](CN(C)C)CC1
Procedure, shortened: as §1

Measured: log2 fold change

SELENOP (UniProt P49908)
inactive: IRAK-1-4 Inhibitor I -0.005 | ibrutinib 0.117 | [1] 0.078 | pinometostat -0.034

SFT2D3 (UniProt Q587I9)
inactive: IRAK-1-4 Inhibitor I -0.028 | ibrutinib -0.023 | ralimetinib 0.204 | [2] -0.016 | [1] -0.036 | [3] -0.112 | pinometostat -0.073 | [4] 0.048 | [5] -0.007

SESN1 isoform 2 (UniProt Q9Y6P5)
inactive: IRAK-1-4 Inhibitor I -0.007 | pinometostat 0.001 | [5] 0.06

SKA3 (UniProt Q8IX90)
inactive: IRAK-1-4 Inhibitor I -0.065 | ibrutinib 0.039 | ralimetinib 0.142 | [2] 0.02 | [1] 0.031 | [3] 0.056 | pinometostat 0.254 | [4] 0.062 | [5] -0.077

SH3BGR (UniProt P55822)
inactive: ibrutinib -0.049 | [6] 0.038 | [2] -0.24 | [1] -0.102 | [4] -0.068

SFT2D2 (UniProt O95562)
inactive: ibrutinib 0.053 | [6] -0.07 | ralimetinib 0.055 | [2] 0.038 | [1] -0.032 | [3] -0.144 | [4] -0.049 | [5] -0.076

SHROOM1 (UniProt Q2M3G4)
inactive: ibrutinib 0.173 | [6] -0.234 | ralimetinib -0.027 | [2] -0.142 | [1] -0.097 | [3] 0.209

SERPIND1 (UniProt P05546)
inactive: IRAK-1-4 Inhibitor I -0.022 | [2] 0.184 | [1] 0.218 | pinometostat -0.133 | [4] -0.486

SEC61G (UniProt P60059)
inactive: IRAK-1-4 Inhibitor I 0.011 | ibrutinib 0.031 | ralimetinib -0.091 | [2] -0.208 | [1] 0.25 | [3] 0.039 | pinometostat -0.012 | [4] -0.089

SGPP1 (UniProt Q9BX95)
inactive: IRAK-1-4 Inhibitor I 0.02 | ibrutinib 0.089 | [6] 0.04 | [2] -0.215 | [1] -0.229 | pinometostat -0.027 | [4] -0.028 | [5] -0.184

SHB (UniProt Q15464)
inactive: ibrutinib -0.08 | [6] -0.181 | [5] 0.017

SFXN1 (UniProt D6RDG7)
inactive: [5] -0.179

SH3GL3 isoform 3 (UniProt Q99963)
inactive: ralimetinib 0.142 | [3] 0.12 | [5] -0.124

SECISBP2 (UniProt Q96T21)
inactive: ralimetinib 0.245 | [3] 0.19 | [4] 0.234 | [5] 0.369

SERF2 (UniProt P84101)
inactive: ibrutinib 0.018 | ralimetinib -0.115 | [2] 0.008 | [1] 0.098 | [3] 0.115 | [4] 0.032 | [5] -0.077

SELENOM (UniProt Q8WWX9)
inactive: [2] -0.127 | [1] 0 | [4] 0.026

SHROOM4 (UniProt Q9ULL8)
inactive: [6] 0.239

SEPTIN7 isoform 2 (UniProt Q16181)
inactive: [6] 0.028 | [1] 0.043 | [5] 0.019

SERPINA12 (UniProt Q8IW75)
inactive: [2] 0.599 | [4] -0.735 | [5] 1.38

SFXN4 isoform 3 (UniProt Q6P4A7)
inactive: ibrutinib 0.038 | [6] 0.055 | [1] -0.167 | [5] 0

SEPTIN2 (UniProt B5MCX3)
inactive: [6] -0.189 | ralimetinib -0.313 | [3] 0.187 | [5] -0.065

SKA2 (UniProt Q8WVK7)
inactive: ralimetinib 0.278 | [3] 0.259

SH3PXD2B (UniProt A1X283)
inactive: ibrutinib -0.115 | [6] -0.005 | [2] 0.035 | [1] 0.075 | [5] 0.027

SFT2D1 (UniProt Q8WV19)
inactive: [6] -0.212 | ralimetinib 0.12 | [3] -0.052

SETD2 (UniProt Q9BYW2)
inactive: [6] 0.051 | [5] -0.098

SERPING1 isoform 3 (UniProt P05155)
inactive: [1] 0.074 | [5] -0.085

SIK2 (UniProt Q9H0K1)
inactive: ibrutinib 0.08 | ralimetinib -0.05 | [1] -0.058 | [3] 0.051

SEMG2 (UniProt Q02383)
inactive: ibrutinib -0.031 | [6] -0.148 | [2] -0.011 | [5] 0.049

SERPINA3 (UniProt P01011)
inactive: [2] 0.041

SIVA1 (UniProt O15304)
inactive: [2] -0.006

SIMC1 (UniProt Q8NDZ2)
inactive: [1] -0.423

SELENON (UniProt Q9NZV5)
inactive: [6] -0.084 | ralimetinib -0.039 | [3] 0.053

SGSH (UniProt P51688)
inactive: [1] 0.066 | [4] 0.069

SHARPIN (UniProt Q9H0F6)
inactive: [4] 0.255

SEMA7A (UniProt O75326)
inactive: ralimetinib 0.101 | [2] -0.216 | [3] 0.093

Two entries picked at random from those above:
SERPING1 isoform 3 (UniProt P05155)
inactive: [1] 0.074 | [5] -0.085

SGSH (UniProt P51688)
inactive: [1] 0.066 | [4] 0.069

(continued)

SERPINB7 (UniProt O75635)
inactive: ibrutinib 0.071 | [6] -0.004 | [5] -0.012

SEPTIN10 isoform 2 (UniProt Q9P0V9)
inactive: ibrutinib 0.079 | [6] -0.042 | [2] 0.037 | [1] 0.044 | [4] 0.037 | [5] -0.155

SERPINB5 (UniProt P36952)
inactive: ibrutinib -0.028 | ralimetinib 0.157 | [3] -0.349 | [5] 1.9

SHC1 (UniProt P29353)
inactive: [6] -0.087

SERAC1 (UniProt Q96JX3)
inactive: [1] 0.04 | [4] -0.163

SF1 (UniProt H7BZT1)
inactive: ralimetinib -0.193 | [3] 0.106

SELENOK (UniProt Q9Y6D0)
inactive: ibrutinib 0.003 | [6] -0.012 | [2] 0.057 | [1] 0.053 | [4] -0.123 | [5] 0.081

SFR1 isoform 2 (UniProt Q86XK3)
inactive: ibrutinib -0.047 | ralimetinib -0.005 | [2] -0.098 | [3] -0.032
